Experimental data: PubChem BioAssay AID602196 (INSERM, 2012)
Shown is a random part of about 23,000 reagents tested. In the full data, 455 (2%) are marked active. 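Active includes both protection and sensitisation; some change values fall well beyond the stated -50 to +50 range.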 Unmarked entries are inactive. Further read-outs or replicates are left out here. Not given: the amount of reagent.

Aim: 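Modifiers of cisplatin sensitivity in A549 cells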
Cell system: human A549 lung cancer cells
Knock-down reagent: siRNA pair against human genes
Duration: 48 h transfection before cisplatin; time from cisplatin to read-out not stated
Treatment: cisplatin at a dose killing half of control-siRNA cells; exact dose and duration not given
Read-out: 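Shift in cisplatin death relative to control siRNA, from -50 (all cells die) to +50 (no cells die); siRNAs harmful on their own scored 0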
Direction: two-siRNA summed score (-2 to +2): higher = both siRNAs protect from cisplatin killing; -2 means both sensitise; mean protection from cisplatin (shift in death): higher = protection from cisplatin killing
Active means: 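siRNAs harmful alone (LDH or WST-1) get 0; others get +1 for less and -1 for more cisplatin killing; genes are active when the two siRNAs give the same sign, summing to ±2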
Calls: active = both siRNAs shift cisplatin killing the same way; inactive = no consistent shift, or siRNA harmful alone

gene | two-siRNA summed score (-2 to +2) | mean protection from cisplatin (shift in death) (%)
ERN2 | 0 | 2.5
NMT1 | -1 | -12.8
LGI4 | 0 | -2.6
FOXB1 | 0 | -7.2
SLC5A7 | 0 | 4.2
MAPKAPK2 | 1 | 15.7
ARHGAP15 | 0 | 16.2
GALNT15 | 0 | 9.5
CIITA | 1 | 10.1
GJB4 | 0 | 8.4
COX16 | 0 | 2.3
LOC401509 | 0 | 6.1
FHL3 | 1 | 9.5
LOC440698 | 1 | 8.1
ZNF570 | 1 | 4.6
POLE2 | 0 | 2.5
ZNF813 | -1 | -1.9
B3GAT1 | 0 | 4.8
DNALI1 | 1 | 14.1
LOC401610 | -1 | -2.1
FDPS | 0 | 1
SMG6 | 1 | 13.6
TRIM39 | 0 | -6.8
GMPPA | 0 | 7.7
INA | 1 | 8.8
ACAP3 | 0 | 3.9

8 entries from above, sorted by “two-siRNA summed score (-2 to +2)”, lowest first:
gene | two-siRNA summed score (-2 to +2) | mean protection from cisplatin (shift in death) (%)
FOXB1 | 0 | -7.2
SLC5A7 | 0 | 4.2
ARHGAP15 | 0 | 16.2
GALNT15 | 0 | 9.5
GJB4 | 0 | 8.4
COX16 | 0 | 2.3
MAPKAPK2 | 1 | 15.7
CIITA | 1 | 10.1

The listing continues.
gene | two-siRNA summed score (-2 to +2) | mean protection from cisplatin (shift in death) (%)
ALDH3B1 | 0 | -8.6
AKR1D1 | 0 | -0.3
LOC440840 | 1 | 22.3
PKNOX2 | 0 | 5.4
INSL6 | 1 | 10.7
CD3G | 0 | -3.6
CDADC1 | -1 | -9.4
EIF1B | 1 | 15.6
UHMK1 | 0 | -3.7
FA2H | -1 | -1.9
MAPK6 | 0 | 3.5
PITPNA | -1 | -1.8
SHROOM3 | 0 | 6.5
TMEM119 | 1 | 9.1
CAMSAP2 | 0 | 16.8
FUS | 0 | -5.9
TIMM8B | -1 | -8.2
SENP1 | 0 | 11.2
LOC388642 | 0 | 1.6
FAM124B | 0 | 4.6
LOC401188 (retired record) | 0 | 7
RGL1 | 0 | 2.9
LOC389427 | 0 | -4
LOC400299 | 0 | 0.9
LOC283464 | 0 | 11.9
CPB1 | 1 | 8.4
PRDM10-DT | 1 | 19.4
ABCC8 | 0 | -1.1
CRYGD | 0 | 13.5
THSD1 | 0 | 9.7
MAP4K4 | -1 | -4
